Results taken from PubChem BioAssay AID493014 (National Center for Advancing Translational Sciences (NCATS), 2011).
This is one part of the list. Further columns of the screen follow, without active or inactive calls. The list favours compounds with an active or inconclusive main result. The note in brackets gives the kind of curve behind each potency; many fits are weak.

Assay: qHTS Assay to Find Inhibitors of Chronic Active B-Cell Receptor Signaling
Details: ABC-DLBCL IkBa-CBG/CBR reporter, luminescence ratio (green luciferase fused to IkBa over red control in TMD8 lymphoma cells), 4 h
Summary of the method: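 TMD8 human ABC-DLBCL cells with doxycycline-inducible IκBα–green luciferase fusion and unfused red luciferase, in 0.5% FBS medium; compounds up to 46 uM, 4 h at 37C. Green/red luminescence ratio, filter-overlap corrected, fitted to concentration-response curves.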

[1] = measured here: CBR red luminescence, cell number
[2] = measured here: IkBa-CBG green luminescence

SMILES	AC50 [1]	AC50 [2]
CCCNC(=S)Nc1cc2oc3ccccc3c2cc1OC	0.708 µM [rising, full curve]	–
COc1cc(NC(=O)COC(=O)C2CC2)c(C)cc1[N+](=O)[O-]	3.26 µM [rising, single point]	–
COCCN(CCOc1cc(C)cc(C)c1)Cc1ccc(Cl)cc1	0.1 µM [rising, full curve, poor fit]	–
Cc1ccc(S(=O)(=O)NCCC(=O)Nc2nccs2)cc1	14.1 µM [falling, partial curve]	–
Cc1c(C(=O)N2CCN(c3ccccn3)CC2)oc2c(F)cccc12	35.5 µM [falling, single point]	–
COc1cc(C(=O)OCC(=O)N2CC(C)OC(C)C2)cc(OC)c1OC (stereo not given)	5.62 µM [rising, single point]	–
COc1cc(SC)ccc1C(=O)Nc1cccc(S(=O)(=O)NC2=NCCC2)c1	16.4 µM [falling, partial curve, poor fit]	–
Cc1ccccc1OCC(=O)OCC(=O)c1ccc(-c2ccccc2)cc1	4.61 µM [rising, full curve]	–
Clc1cccc(N/N=C(\Cc2nc3ccccc3[nH]2)c2ccccc2)c1	16.4 µM [falling, partial curve]	–
COc1ccc(C2=C(c3ccc(OC)c(OC)c3)CN3CCCCC3C2)cc1 (stereo not given)	–	16.4 µM [falling, partial curve, poor fit]
CCCCn1nc(C(=O)Nc2nc3c(s2)CCCC3)c2ccccc2c1=O	1.84 µM [rising, single point]	–
CC1=C(C)CS(=O)N(S(=O)(=O)c2ccccc2)C1 (stereo not given)	18.4 µM [rising, partial curve]	29.1 µM [falling, single point]
CCOC(=O)c1ccccc1NC(=O)CSc1nnnn1C1CCCCC1	11.2 µM [falling, partial curve]	–
CSc1nc(Sc2ccccc2Cl)c2ccccc2n1	18.4 µM [rising, single point]	29.1 µM [falling, single point]
CC(C)CCNC(=O)CCc1nnc2n(CCCOC(C)C)c(=O)c3ccccc3n12	3.16 µM [rising, full curve, poor fit]	–
O=C1C=C(c2ccc(Cl)c(C(F)(F)F)c2)C[C@@H](c2ccc(F)cc2)C1	20.6 µM [rising, single point]	–
O=C(CCCOc1ccc(Cl)cc1)Nc1cccc(C(=O)O)c1	17.8 µM [falling, partial curve, poor fit]	–
CC(=O)Nc1ccc(N(CC(O)Cn2c3ccccc3c3ccccc32)S(=O)(=O)c2ccc(C)cc2)cc1 (stereo not given)	13 µM [falling, partial curve]	–
CCC(C)(C)NC(=O)CN(C(=O)CNS(=O)(=O)c1ccccc1)c1ccc2c(c1)OCCO2	0.112 µM [falling, full curve, poor fit]	–
CN(C)C(=O)c1ccc(NC(=O)COC(=O)c2cc(S(=O)(=O)N(C)C)ccc2N2CCCC2)cc1	2.91 µM [rising, full curve, poor fit]	–
Cc1[nH]n(-c2ccc([N+](=O)[O-])cc2)c(=O)c1C=NCCN1CCN(C(=O)c2ccc(F)cc2)CC1	6.51 µM [falling, single point]	–

Structural class: the entries above containing fluorine (3)
SMILES	AC50 [1]	AC50 [2]
Cc1c(C(=O)N2CCN(c3ccccn3)CC2)oc2c(F)cccc12	35.5 µM [falling, single point]	–
O=C1C=C(c2ccc(Cl)c(C(F)(F)F)c2)C[C@@H](c2ccc(F)cc2)C1	20.6 µM [rising, single point]	–
Cc1[nH]n(-c2ccc([N+](=O)[O-])cc2)c(=O)c1C=NCCN1CCN(C(=O)c2ccc(F)cc2)CC1	6.51 µM [falling, single point]	–

Fetched one by one from the list above, two records:
SMILES	AC50 [1]	AC50 [2]
COc1ccc(C2=C(c3ccc(OC)c(OC)c3)CN3CCCCC3C2)cc1 (stereo not given)	–	16.4 µM [falling, partial curve, poor fit]
CCC(C)(C)NC(=O)CN(C(=O)CNS(=O)(=O)c1ccccc1)c1ccc2c(c1)OCCO2	0.112 µM [falling, full curve, poor fit]	–

Next structures

SMILES	AC50 [1]	AC50 [2]
O=C(CSC1CC(=O)N(CC(c2ccccc2)c2ccccc2)C1=O)Nc1ccc(Cl)cc1 (stereo not given)	8.91 µM [falling, partial curve]	–
CCOC(=O)CNC(=O)c1sc2ncnc(N3CCc4ccccc4C3)c2c1C	11.6 µM [falling, partial curve, poor fit]	–
CC(C)N1CCC(N2CCN(C/C=C/c3ccccc3)CC2CCO)CC1 (stereo not given)	5.62 µM [falling, single point]	–
CCOC(=O)N1CCN(c2cc(=O)n(-c3ccc(OCC)cc3)c(=O)[nH]2)CC1	6.51 µM [rising, partial curve, poor fit]	–
CC(C)C(=O)Nc1ccc(NC(=O)c2ccccc2Cl)nc1	5.8 µM [falling, partial curve, poor fit]	–
CCN1CCN(CCCNC(=O)c2ccc(/C=C3/Sc4ccccc4N(Cc4ccccc4F)C3=O)cc2)CC1	35.5 µM [falling, partial curve, poor fit]	–
Cc1ccc(NC(=S)NNC(=O)c2nn(C)c(C)c2Cl)cc1	11.2 µM [falling, single point]	–
Cc1ccc(N(C(=O)c2csnn2)C(C(=O)NC2CCCCC2)c2ccncc2)cc1 (stereo not given)	35.5 µM [rising, partial curve, poor fit]	–
CCOC(=O)c1cc(-c2ccc(Cl)cc2)nc2onc(C)c12	7.31 µM [rising, partial curve]	–
Cc1ccc(NC(=O)c2ccc(=O)[nH]n2)cc1C	35.5 µM [falling, single point]	–
Cc1nc(CCNC(=O)COc2ccccc2)cs1	18.4 µM [falling, single point]	–
Cc1ccc2nc(NC(=O)c3ccccc3F)sc2c1	2 µM [falling, full curve]	–
COc1ccccc1C(=O)OCC(=O)c1cccc([N+](=O)[O-])c1	16.4 µM [rising, single point]	–
O=C(Nc1ccccc1)N1CCN(c2ccccn2)CC1	10 µM [falling, partial curve, poor fit]	–
Cn1c(SCC(=O)c2ccccc2)nnc1-c1cccnc1	2.82 µM [rising, single point]	–
COc1ccc(CCNC(=O)C2CCN(S(=O)(=O)N3CCC(C)CC3)CC2)cc1OC	12.6 µM [rising, partial curve, poor fit]	–
O=C(CSc1ccc(Cl)cc1)N1CCC(c2nc3ccccc3s2)CC1	35.5 µM [falling, single point]	–
Cc1ccc(NC(=O)C2CCCN2S(=O)(=O)c2cccc3cccnc23)cc1F (stereo not given)	2.59 µM [rising, single point]	–
CN(Cc1ccccc1)C(=O)CCS(=O)(=O)c1ccc2c(c1)n(C)c(=O)c(=O)n2C	0.103 µM [falling, full curve, poor fit]	–
COc1cccc(NC(=O)CN(C)C(=O)c2cccc(S(=O)(=O)N3CCN(c4ccccc4)CC3)c2)c1	12.6 µM [falling, partial curve, poor fit]	–
C/C(CC(=O)Nc1ccc2c(c1)OCO2)=N\NC(=O)c1ccc(N)cc1	10 µM [falling, partial curve, poor fit]	–

SMILES	AC50 [1]	AC50 [2]
CO/N=C\C(=N\Nc1ccc(OC)cc1)C(=O)c1ccccc1	1.84 µM [rising, partial curve, poor fit]	–
CCOc1cc(/C=C2\C(=N)N3N=C(S(=O)(=O)CC)SC3=NC2=O)ccc1OC(=O)c1ccco1	15.8 µM [rising, single point]	–
O=C(c1nc2ncccn2n1)N1CCN(c2ccc(F)cc2)CC1	18.4 µM [rising, single point]	–
O=c1c2ccccc2nc(N/N=C/c2ccc(O)cc2)n1O	5.8 µM [falling, partial curve, poor fit]	–
COc1cccc(N(CC(=O)NCCSCc2ccc(Cl)cc2)S(C)(=O)=O)c1	35.5 µM [falling, single point]	–
CCNC(=S)N=Nc1c(O)[nH]c2ccc(C(C)C)cc12	23.1 µM [rising, partial curve]	–
C/C(=N\Nc1ncc(Cl)cc1Cl)c1ccc(S(=O)(=O)NCc2ccco2)cc1	2.06 µM [rising, partial curve, poor fit]	18.4 µM [falling, single point]
COc1cccc(C(=O)NCCS(=O)(=O)NC(C)CCc2ccccc2)c1 (stereo not given)	23.1 µM [falling, single point]	–
CCn1c(Sc2nc(C)nc3scc(-c4cccs4)c23)n[nH]c1=O	7.08 µM [falling, partial curve, poor fit]	–
CCN(CC)CCCNC(=S)N1CCN(c2nc(-c3ccc(F)cc3)cs2)CC1	35.5 µM [falling, single point]	–
COc1cc(/C=C/c2cc(C(=O)O)c3ccccc3n2)cc(OC)c1O	10 µM [falling, partial curve]	–
COc1cc(N(C)C)c([N+](=O)[O-])cc1C(=O)N1CCN(Cc2ccccc2)CC1	14.1 µM [falling, partial curve, poor fit]	–
CCOc1ccccc1OCC(=O)Nc1cccc(S(=O)(=O)N2CCCCCC2)c1	25.9 µM [falling, partial curve, poor fit]	–
CS(=O)(=O)c1ccc(NCCc2ccc(S(N)(=O)=O)cc2)c([N+](=O)[O-])c1	35.5 µM [falling, single point]	–
COc1ccccc1NC(C)=[N+](C)CCNS(=O)(=O)c1ccc(Cl)cc1	22.4 µM [falling, single point]	–
CCOC(=O)C1CCCN(C(=O)c2ccc(C)cc2O)C1 (stereo not given)	0.92 µM [rising, full curve, poor fit]	–
CCC(C)OC(=O)C(C)Oc1ccc(-c2ccccc2)cc1 (stereo not given)	25.9 µM [rising, partial curve, poor fit]	–
CC(=O)c1ccc(NC(=O)[C@@H]2CCCN2C(=O)OC(C)(C)C)cc1	35.5 µM [falling, single point]	–
Cn1nc(-c2ccc(Cl)cc2)c2cc(C(=O)NCc3ccco3)sc21	9.2 µM [falling, partial curve, poor fit]	–
COc1ccccc1-c1cc(C(=O)Nc2cc(C)nn2-c2ccccc2)no1	2.31 µM [falling, full curve]	–
